Data: patent publication US20030177527A1

Molecular target: NBS-LRR domain of the Mi-1.2 gene product (yeast two-hybrid bait) (tomato)
Assay: yeast two-hybrid, Mi-1.2 NBS-LRR domain as bait

B1: Interactor S-25 (PP5, TPR-Phosphatase homolog) (enzyme, not shown: large carriers; small tags and cut ends)
chain: MPGMEAENSNASRAEELKQLANEAFKGHKYSQAIDLYTQAIELNGENAVYYANRAFAHTKLEEYGSAIQDGTRAIEIDPRYSKGYYRRGAAYLAMGKFKDALKDFQQVKKLCPNDPDATKKLKECEKAVMKLKFEEAISVPESQRRSVADSIDYRSVEVEPQYAGARIEGDVVTLDFVKKMLDDFKNQKNLHKRYAYQIVLQTREMLRALPSLVDIVVPEGKHFTVCGDVHGQFYDLLNIFELNGLPSEDNPYLFNGDFVDRGSFSLEVILTLFAFKCMCPSAIHLARGNHESKSMNKIYGFEGEVRSKLSEIFVELFAEVFCCLPLAHVINEKVFVVHRGLFSVDGVKLSDIRAIDRFCEPPEEGLMCELLWSDPQPQPGRGPSKRGVGLSFGGDVTKRFLQENNLDLVVRSHEVKDEGYEIEHDGKLITVFSAPNYCDQMGNKGAFIRFEAPDMKPNIVTFSAVPHPDVKPMAYANNFLRMFS
In the case of B1, the binding is reported as “binds”.

These are yes or no findings as the source states them, for the method shown. A result given as binding can be weak or reduced; the word gives no strength.
